In patent US20190105194A1, “METHODS OF TREATING A SUBJECT WITH AN OCULAR CONDITION RESPONSIVE TO STEROID THERAPY” (Aciont Inc., priority 2017, published 2019):

How the values were obtained:
[1] = test system: New Zealand White (NZW) rabbits; conditions: rabbit, in vivo
[2] = test system: New Zealand White rabbits; conditions: rabbit, in vivo
[3] = rabbit, in vivo

- duration of transient effect on IOP ([1]; both): ≤ 30 min
- duration of increase in IOP ([1]; female): less than 30 minutes
- appearance of cornea after each administration [2]: appeared normal
SMILES: C[C@@H]1C[C@H]2[C@@H]3CCC4=CC(=O)C=C[C@]4(C)[C@@]3(F)[C@@H](O)C[C@]2(C)[C@@]1(O)C(=O)COP(=O)(O)O [DSP, dexamethasone sodium phosphate]
- drug plasma concentrations within 24 hours [3]: approaching or under the lowest detection limit of 1 ng/mL
